Results are given in words; binding and its absence hold for the method and conditions named. Some results given as binding are weak or reduced against the parent protein; the word gives no strength.
Molecular target: FUS recombinant protein (UniProt P35637)
Test: co-IP

By UniProt entry, the sequences of proteins in these tests, tags left out.
UniProt P35637: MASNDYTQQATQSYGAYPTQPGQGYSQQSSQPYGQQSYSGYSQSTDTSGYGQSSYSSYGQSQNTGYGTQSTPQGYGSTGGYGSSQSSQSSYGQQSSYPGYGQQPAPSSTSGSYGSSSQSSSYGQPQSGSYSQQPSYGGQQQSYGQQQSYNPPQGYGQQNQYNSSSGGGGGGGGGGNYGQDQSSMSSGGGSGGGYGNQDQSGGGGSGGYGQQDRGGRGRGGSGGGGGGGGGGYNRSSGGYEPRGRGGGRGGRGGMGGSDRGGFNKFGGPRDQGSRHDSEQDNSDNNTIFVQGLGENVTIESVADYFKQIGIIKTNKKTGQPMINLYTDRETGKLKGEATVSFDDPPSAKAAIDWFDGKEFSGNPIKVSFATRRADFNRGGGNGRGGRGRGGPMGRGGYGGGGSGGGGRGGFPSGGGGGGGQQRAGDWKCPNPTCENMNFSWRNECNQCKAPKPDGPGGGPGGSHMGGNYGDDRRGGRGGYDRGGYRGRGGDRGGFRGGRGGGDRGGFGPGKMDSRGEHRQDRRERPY
UniProt P41161: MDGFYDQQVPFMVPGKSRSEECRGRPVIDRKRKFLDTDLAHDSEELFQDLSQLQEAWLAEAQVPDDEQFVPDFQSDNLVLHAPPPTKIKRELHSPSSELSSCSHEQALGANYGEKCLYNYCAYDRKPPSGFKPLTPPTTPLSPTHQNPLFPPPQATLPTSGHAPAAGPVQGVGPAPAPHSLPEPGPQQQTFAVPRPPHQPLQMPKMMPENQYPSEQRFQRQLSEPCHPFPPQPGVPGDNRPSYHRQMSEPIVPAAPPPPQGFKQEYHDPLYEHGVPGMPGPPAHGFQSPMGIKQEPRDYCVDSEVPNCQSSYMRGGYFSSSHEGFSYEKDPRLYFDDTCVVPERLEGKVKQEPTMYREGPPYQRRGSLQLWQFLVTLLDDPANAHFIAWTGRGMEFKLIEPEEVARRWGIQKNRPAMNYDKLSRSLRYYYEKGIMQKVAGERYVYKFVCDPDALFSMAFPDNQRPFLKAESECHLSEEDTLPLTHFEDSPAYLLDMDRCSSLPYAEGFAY
UniProt Q02078: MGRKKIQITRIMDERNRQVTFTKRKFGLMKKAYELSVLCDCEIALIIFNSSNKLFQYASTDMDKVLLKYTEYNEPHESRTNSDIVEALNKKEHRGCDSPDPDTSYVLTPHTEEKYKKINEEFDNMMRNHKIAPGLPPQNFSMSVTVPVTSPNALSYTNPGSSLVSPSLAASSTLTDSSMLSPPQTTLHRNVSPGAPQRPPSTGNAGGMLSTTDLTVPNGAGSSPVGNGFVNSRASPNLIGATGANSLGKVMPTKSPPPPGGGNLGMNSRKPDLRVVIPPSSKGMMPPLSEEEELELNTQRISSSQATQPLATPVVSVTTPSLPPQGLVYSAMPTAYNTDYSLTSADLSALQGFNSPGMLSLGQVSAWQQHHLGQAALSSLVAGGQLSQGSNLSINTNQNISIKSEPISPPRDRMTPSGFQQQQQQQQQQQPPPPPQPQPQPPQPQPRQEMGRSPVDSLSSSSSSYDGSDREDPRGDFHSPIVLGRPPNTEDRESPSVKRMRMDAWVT

| binding | Substance |
| --- | --- |
| binds | ETV5-CFP (from UniProt P41161 1-510) |
| binds | MEF2A-mCherry (from UniProt Q02078 1-507) |
